Measured values reported in the supplement of paper PMC7661543.
Differences between knockout arms are mostly noise.

Test system: ZR-75-1
Experiment: relative cell number vs DMSO control (72 h) (% of DMSO); higher = less growth inhibition (more cells)
Experimental: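 QMAP-Seq: a pool of 5 breast cancer cell lines (ZR-75-1, SKBR3, HCC-38, MDA-MB-231, BT-20), each carrying 12 doxycycline-inducible Cas9 sgRNA perturbations (11 knockouts plus non-targeting sgNT), was treated with compounds for 72 h at four 10-fold doses (10 nM-10 uM or 1 nM-1 uM range). Barcodes were amplified and sequenced, and cell number was interpolated from 293T spike-in standard curves. The result is expressed as % of the median of DMSO wells. Two biological replicates.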

CC(=O)Nc1cccc(-n2c(=O)n(C3CC3)c(=O)c3c(Nc4ccc(I)cc4F)n(C)c(=O)c(C)c32)c1 [Trametinib]
Conditions | relative cell number
sgRNA knockout: sgATF3, 10 nM | 108
sgRNA knockout: sgATF3, 100 nM | 87.6
sgRNA knockout: sgATF3, 1000 nM | 94
sgRNA knockout: sgATF3, 10000 nM | 53.4
sgRNA knockout: sgATF4, 10 nM | 99.1
sgRNA knockout: sgATF4, 100 nM | 71.7
sgRNA knockout: sgATF4, 1000 nM | 69.2
sgRNA knockout: sgATF4, 10000 nM | 51.6
sgRNA knockout: sgATF6, 10 nM | 74.6
sgRNA knockout: sgATF6, 100 nM | 65.1
sgRNA knockout: sgATF6, 1000 nM | 64.4
sgRNA knockout: sgATF6, 10000 nM | 48.6
sgRNA knockout: sgATG7, 10 nM | 112
sgRNA knockout: sgATG7, 100 nM | 70.1
sgRNA knockout: sgATG7, 1000 nM | 59.1
sgRNA knockout: sgATG7, 10000 nM | 42.9
sgRNA knockout: sgERN1, 10 nM | 92.4
sgRNA knockout: sgERN1, 100 nM | 64.5
sgRNA knockout: sgERN1, 1000 nM | 68
sgRNA knockout: sgERN1, 10000 nM | 55.6
sgRNA knockout: sgHSF2, 10 nM | 89.5
sgRNA knockout: sgHSF2, 100 nM | 76.3
sgRNA knockout: sgHSF2, 1000 nM | 76.8
sgRNA knockout: sgHSF2, 10000 nM | 57.3
sgRNA knockout: sgNFE2L2, 10 nM | 105
sgRNA knockout: sgNFE2L2, 100 nM | 76
sgRNA knockout: sgNFE2L2, 1000 nM | 55.3
sgRNA knockout: sgNFE2L2, 10000 nM | 43.3
sgRNA knockout: sgSLC35F2, 10 nM | 93.1
sgRNA knockout: sgSLC35F2, 100 nM | 89.3
sgRNA knockout: sgSLC35F2, 1000 nM | 74.1
sgRNA knockout: sgSLC35F2, 10000 nM | 35.7
sgRNA knockout: sgXBP1, 10 nM | 98
sgRNA knockout: sgXBP1, 100 nM | 81.6
sgRNA knockout: sgXBP1, 1000 nM | 57.3
sgRNA knockout: sgXBP1, 10000 nM | 41.7

CC(C)[C@]12O[C@H]1[C@@H]1O[C@]13[C@]1(O[C@H]1C[C@H]1C4=C(CC[C@@]13C)C(=O)OC4)[C@@H]2O [Triptolide]
Conditions | relative cell number
sgRNA knockout: sgATF3, 1 nM | 81.2
sgRNA knockout: sgATF3, 10 nM | 64.8
sgRNA knockout: sgATF3, 100 nM | 12.2
sgRNA knockout: sgATF3, 1000 nM | 17.7
sgRNA knockout: sgATF4, 1 nM | 119
sgRNA knockout: sgATF4, 10 nM | 68.6
sgRNA knockout: sgATF4, 100 nM | 11.8
sgRNA knockout: sgATF4, 1000 nM | 13.2
sgRNA knockout: sgATF6, 1 nM | 77
sgRNA knockout: sgATF6, 10 nM | 50.5
sgRNA knockout: sgATF6, 100 nM | 16.1
sgRNA knockout: sgATF6, 1000 nM | 10.8
sgRNA knockout: sgATG7, 1 nM | 93.5
sgRNA knockout: sgATG7, 10 nM | 53.1
sgRNA knockout: sgATG7, 100 nM | 8.99
sgRNA knockout: sgATG7, 1000 nM | 8.96
sgRNA knockout: sgERN1, 1 nM | 89.11
sgRNA knockout: sgERN1, 10 nM | 57.1
sgRNA knockout: sgERN1, 100 nM | 12.5
sgRNA knockout: sgERN1, 1000 nM | 15
sgRNA knockout: sgHSF2, 1 nM | 86.7
sgRNA knockout: sgHSF2, 10 nM | 67.1
sgRNA knockout: sgHSF2, 100 nM | 8.65
sgRNA knockout: sgHSF2, 1000 nM | 12.2
sgRNA knockout: sgNFE2L2, 1 nM | 91.6
sgRNA knockout: sgNFE2L2, 10 nM | 69.6
sgRNA knockout: sgNFE2L2, 100 nM | 8.41
sgRNA knockout: sgNFE2L2, 1000 nM | 9.17
sgRNA knockout: sgSLC35F2, 1 nM | 73.3
sgRNA knockout: sgSLC35F2, 10 nM | 50.9
sgRNA knockout: sgSLC35F2, 100 nM | 13.2
sgRNA knockout: sgSLC35F2, 1000 nM | 7.62
sgRNA knockout: sgXBP1, 1 nM | 90.2
sgRNA knockout: sgXBP1, 10 nM | 56.8
sgRNA knockout: sgXBP1, 100 nM | 8.4
sgRNA knockout: sgXBP1, 1000 nM | 9.39

Cc1onc(-c2ccccc2)c1-c1ccc(S(N)(=O)=O)cc1 [Valdecoxib]
Conditions | relative cell number
sgRNA knockout: sgATF3, 10 nM | 108
sgRNA knockout: sgATF3, 100 nM | 123
sgRNA knockout: sgATF3, 1000 nM | 89
sgRNA knockout: sgATF3, 10000 nM | 81.6
sgRNA knockout: sgATF4, 10 nM | 107
sgRNA knockout: sgATF4, 100 nM | 98.3
sgRNA knockout: sgATF4, 1000 nM | 106
sgRNA knockout: sgATF4, 10000 nM | 115
sgRNA knockout: sgATF6, 10 nM | 107
sgRNA knockout: sgATF6, 100 nM | 98.8
sgRNA knockout: sgATF6, 1000 nM | 124
sgRNA knockout: sgATF6, 10000 nM | 113
sgRNA knockout: sgATG7, 10 nM | 104.8
sgRNA knockout: sgATG7, 100 nM | 89.6
sgRNA knockout: sgATG7, 1000 nM | 109
sgRNA knockout: sgATG7, 10000 nM | 99.6
sgRNA knockout: sgERN1, 10 nM | 116
sgRNA knockout: sgERN1, 100 nM | 92.6
sgRNA knockout: sgERN1, 1000 nM | 116
sgRNA knockout: sgERN1, 10000 nM | 109
sgRNA knockout: sgHSF2, 10 nM | 116
sgRNA knockout: sgHSF2, 100 nM | 119
sgRNA knockout: sgHSF2, 1000 nM | 98.7
sgRNA knockout: sgHSF2, 10000 nM | 107
sgRNA knockout: sgNFE2L2, 10 nM | 82.1
sgRNA knockout: sgNFE2L2, 100 nM | 97.2
sgRNA knockout: sgNFE2L2, 1000 nM | 109
sgRNA knockout: sgNFE2L2, 10000 nM | 97.7
sgRNA knockout: sgSLC35F2, 10 nM | 63.5
sgRNA knockout: sgSLC35F2, 100 nM | 83.5
sgRNA knockout: sgSLC35F2, 1000 nM | 111
sgRNA knockout: sgSLC35F2, 10000 nM | 99.5
sgRNA knockout: sgXBP1, 10 nM | 80.1
sgRNA knockout: sgXBP1, 100 nM | 94.9
sgRNA knockout: sgXBP1, 1000 nM | 100
sgRNA knockout: sgXBP1, 10000 nM | 90.1
